# Test results published in the supplement of paper PMC7024190.
# The other results are listed elsewhere or left out. This data set is noisy: repeats of one test often differ as much as different tests do.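 Human embryonic kidney cells were transiently transfected with a plasmid bearing a Renilla luciferase gene under the HSV-TK promoter. This first-round screen tests roughly ten thousand compounds for ones that increase reporter output.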
# System: HEK 293FT
# Experiment: log relative Renilla luciferase luminescence (reporter expression vs reference, reference not stated) (log (base not stated)); higher = higher recombinant reporter expression
# Settings: 10 µM; time after transfection 48 h
# Procedure: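 HEK 293FT cells transiently transfected with pRL-TK (Renilla luciferase) were treated with compounds at 10 uM and luminescence was read about 42 h later. Values are log relative Renilla luminescence (log base and reference not stated). Single-pass screen; 2080 natural products library.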
row,Compound,log
1,C[C@@H]1CN2C[C@H]3CCC4=C5[C@H](CC4)[C@H](C(=O)O)C[C@@]54C(=O)[C@@H]1C[C@@H]2[C@@]34C [Daphnilongeranin C],0.0673
2,C=C1C(OC(C)=O)C(OC(C)=O)C(OC(=O)c2cccnc2)C(C)(C)C=CC(C)C(OC(C)=O)C2(O)CC(C)(OC(C)=O)C(OC(=O)c3ccccc3)C2C1OC(C)=O (stereo not given) [Pepluanin A],0.0541
3,CC(=O)N[C@@H](C)[C@H]1CC[C@@]2(C)[C@@H]3C=C[C@H]4C(C)(C)[C@@H](N(C)C)CC[C@@]45C[C@@]35CC[C@]12C [Buxbodine D],0.012
4,COc1ccc2ccc(=O)oc2c1/C=C/C(C)(C)O [Murraol],0.0222
5,O=C(O)/C=C/c1ccccc1 [Cinnamic acid],-0.157
6,CC1(C)O[C@H](COc2c3occc3cc3ccc(=O)oc23)C(C)(C)O1 [Heraclenol acetonide],-0.195
7,"O=c1cc(-c2ccc(O)cc2)oc2cccc(O)c12 [4',5-Dihydroxyflavone]",-0.131
8,C=CC(C)(C)c1c(OC)cc(O)c2c(=O)c3c(CC=C(C)C)c(O)c(O)cc3oc12 [Cudraxanthone D],-0.824
9,C[C@H]1COC2=C1C(=O)C(=O)c1c2ccc2c1CCCC2(C)C [Cryptotanshinone],-0.441
10,COc1ccc(-c2cc(=O)c3c(O)cc(O)cc3o2)cc1 [Acacetin],-0.144

# Structural class, those above with a COOH group.
row,Compound,log
1,C[C@@H]1CN2C[C@H]3CCC4=C5[C@H](CC4)[C@H](C(=O)O)C[C@@]54C(=O)[C@@H]1C[C@@H]2[C@@]34C [Daphnilongeranin C],0.0673
5,O=C(O)/C=C/c1ccccc1 [Cinnamic acid],-0.157
